Experimental data published in publication PMC9674349.
No constants are given. Whether binding was seen depends on the method and setting. Binding seen in cells or lysates may run through a third protein. Here binding means that the protein was enriched with, or labelled near, the bait; the list need not be complete.

Amino acid sequences for entries named in this document (tags omitted).
UniProt D3YXK2: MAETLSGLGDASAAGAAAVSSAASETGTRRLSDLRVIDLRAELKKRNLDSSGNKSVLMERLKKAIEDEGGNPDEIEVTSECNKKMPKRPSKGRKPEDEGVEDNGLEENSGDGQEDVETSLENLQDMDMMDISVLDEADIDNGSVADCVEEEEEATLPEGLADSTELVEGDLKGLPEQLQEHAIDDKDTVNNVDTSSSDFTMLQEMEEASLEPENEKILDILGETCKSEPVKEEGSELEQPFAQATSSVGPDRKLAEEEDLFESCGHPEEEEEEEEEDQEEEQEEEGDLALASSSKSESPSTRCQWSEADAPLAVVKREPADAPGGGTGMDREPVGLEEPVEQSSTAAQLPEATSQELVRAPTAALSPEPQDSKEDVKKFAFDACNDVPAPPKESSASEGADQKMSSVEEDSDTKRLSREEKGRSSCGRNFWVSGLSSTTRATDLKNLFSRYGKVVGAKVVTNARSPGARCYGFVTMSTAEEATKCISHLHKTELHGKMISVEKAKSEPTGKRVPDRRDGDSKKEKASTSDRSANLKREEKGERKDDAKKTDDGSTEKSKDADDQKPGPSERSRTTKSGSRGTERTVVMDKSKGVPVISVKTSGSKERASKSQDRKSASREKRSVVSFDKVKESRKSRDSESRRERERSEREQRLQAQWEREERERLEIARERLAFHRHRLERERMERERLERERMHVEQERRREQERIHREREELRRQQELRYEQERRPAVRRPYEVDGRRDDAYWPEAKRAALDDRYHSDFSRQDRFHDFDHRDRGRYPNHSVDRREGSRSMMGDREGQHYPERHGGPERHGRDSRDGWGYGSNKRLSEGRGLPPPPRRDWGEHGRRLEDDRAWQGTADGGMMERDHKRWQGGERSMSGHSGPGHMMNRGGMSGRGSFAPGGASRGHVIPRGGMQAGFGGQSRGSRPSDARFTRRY
UniProt P29341: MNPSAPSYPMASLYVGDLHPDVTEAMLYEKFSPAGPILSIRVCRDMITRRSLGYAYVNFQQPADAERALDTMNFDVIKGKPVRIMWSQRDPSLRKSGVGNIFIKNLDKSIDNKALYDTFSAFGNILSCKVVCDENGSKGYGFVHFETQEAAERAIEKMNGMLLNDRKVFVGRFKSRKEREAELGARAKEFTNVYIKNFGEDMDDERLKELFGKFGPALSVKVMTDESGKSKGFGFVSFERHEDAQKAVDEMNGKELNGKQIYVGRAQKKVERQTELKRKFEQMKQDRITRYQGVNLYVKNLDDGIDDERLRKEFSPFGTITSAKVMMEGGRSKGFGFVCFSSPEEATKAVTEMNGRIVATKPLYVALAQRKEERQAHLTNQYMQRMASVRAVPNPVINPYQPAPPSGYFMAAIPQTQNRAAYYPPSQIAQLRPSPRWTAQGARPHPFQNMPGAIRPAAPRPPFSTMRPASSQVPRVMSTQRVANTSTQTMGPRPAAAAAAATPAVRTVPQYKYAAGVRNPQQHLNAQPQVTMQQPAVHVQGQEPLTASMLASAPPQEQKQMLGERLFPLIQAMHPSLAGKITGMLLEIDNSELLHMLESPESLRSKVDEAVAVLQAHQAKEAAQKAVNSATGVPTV
UniProt P11798: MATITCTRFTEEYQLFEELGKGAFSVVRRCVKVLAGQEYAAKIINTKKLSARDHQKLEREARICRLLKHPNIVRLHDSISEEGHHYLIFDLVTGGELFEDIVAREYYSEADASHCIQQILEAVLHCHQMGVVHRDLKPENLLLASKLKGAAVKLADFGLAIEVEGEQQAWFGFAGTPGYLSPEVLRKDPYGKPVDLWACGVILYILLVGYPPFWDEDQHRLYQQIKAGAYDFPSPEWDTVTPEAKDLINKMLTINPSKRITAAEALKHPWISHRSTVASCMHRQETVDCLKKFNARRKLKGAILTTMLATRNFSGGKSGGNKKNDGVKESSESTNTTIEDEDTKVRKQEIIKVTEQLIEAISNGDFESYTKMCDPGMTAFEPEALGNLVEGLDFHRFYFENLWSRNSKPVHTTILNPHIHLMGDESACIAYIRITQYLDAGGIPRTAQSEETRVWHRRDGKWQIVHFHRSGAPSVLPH
UniProt P63085: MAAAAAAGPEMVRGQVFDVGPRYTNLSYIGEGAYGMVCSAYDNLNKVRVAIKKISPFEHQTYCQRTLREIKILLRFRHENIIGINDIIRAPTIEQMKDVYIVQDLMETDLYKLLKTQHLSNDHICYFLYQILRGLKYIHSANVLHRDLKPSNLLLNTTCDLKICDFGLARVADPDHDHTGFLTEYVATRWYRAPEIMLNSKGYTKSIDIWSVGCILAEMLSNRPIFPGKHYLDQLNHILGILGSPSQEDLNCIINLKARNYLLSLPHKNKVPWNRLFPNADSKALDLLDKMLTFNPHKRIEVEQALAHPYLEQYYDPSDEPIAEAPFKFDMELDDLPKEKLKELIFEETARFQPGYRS
UniProt Q62167: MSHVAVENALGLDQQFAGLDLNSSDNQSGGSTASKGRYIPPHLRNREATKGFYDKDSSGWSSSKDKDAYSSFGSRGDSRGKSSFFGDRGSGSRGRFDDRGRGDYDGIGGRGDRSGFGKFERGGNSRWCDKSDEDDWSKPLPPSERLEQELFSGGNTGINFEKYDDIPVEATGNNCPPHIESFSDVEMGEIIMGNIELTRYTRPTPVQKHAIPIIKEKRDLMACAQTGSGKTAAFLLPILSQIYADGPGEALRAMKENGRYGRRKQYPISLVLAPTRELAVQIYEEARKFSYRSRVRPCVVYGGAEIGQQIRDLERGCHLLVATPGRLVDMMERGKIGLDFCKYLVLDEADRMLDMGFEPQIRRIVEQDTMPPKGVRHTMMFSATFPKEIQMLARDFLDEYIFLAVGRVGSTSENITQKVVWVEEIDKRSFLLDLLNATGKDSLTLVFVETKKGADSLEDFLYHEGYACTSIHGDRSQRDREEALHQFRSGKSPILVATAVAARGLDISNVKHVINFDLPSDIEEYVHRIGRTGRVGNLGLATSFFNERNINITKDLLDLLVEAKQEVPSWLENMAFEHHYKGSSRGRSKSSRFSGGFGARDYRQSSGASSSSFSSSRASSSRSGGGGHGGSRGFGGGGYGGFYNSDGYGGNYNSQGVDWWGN
UniProt Q80YA9: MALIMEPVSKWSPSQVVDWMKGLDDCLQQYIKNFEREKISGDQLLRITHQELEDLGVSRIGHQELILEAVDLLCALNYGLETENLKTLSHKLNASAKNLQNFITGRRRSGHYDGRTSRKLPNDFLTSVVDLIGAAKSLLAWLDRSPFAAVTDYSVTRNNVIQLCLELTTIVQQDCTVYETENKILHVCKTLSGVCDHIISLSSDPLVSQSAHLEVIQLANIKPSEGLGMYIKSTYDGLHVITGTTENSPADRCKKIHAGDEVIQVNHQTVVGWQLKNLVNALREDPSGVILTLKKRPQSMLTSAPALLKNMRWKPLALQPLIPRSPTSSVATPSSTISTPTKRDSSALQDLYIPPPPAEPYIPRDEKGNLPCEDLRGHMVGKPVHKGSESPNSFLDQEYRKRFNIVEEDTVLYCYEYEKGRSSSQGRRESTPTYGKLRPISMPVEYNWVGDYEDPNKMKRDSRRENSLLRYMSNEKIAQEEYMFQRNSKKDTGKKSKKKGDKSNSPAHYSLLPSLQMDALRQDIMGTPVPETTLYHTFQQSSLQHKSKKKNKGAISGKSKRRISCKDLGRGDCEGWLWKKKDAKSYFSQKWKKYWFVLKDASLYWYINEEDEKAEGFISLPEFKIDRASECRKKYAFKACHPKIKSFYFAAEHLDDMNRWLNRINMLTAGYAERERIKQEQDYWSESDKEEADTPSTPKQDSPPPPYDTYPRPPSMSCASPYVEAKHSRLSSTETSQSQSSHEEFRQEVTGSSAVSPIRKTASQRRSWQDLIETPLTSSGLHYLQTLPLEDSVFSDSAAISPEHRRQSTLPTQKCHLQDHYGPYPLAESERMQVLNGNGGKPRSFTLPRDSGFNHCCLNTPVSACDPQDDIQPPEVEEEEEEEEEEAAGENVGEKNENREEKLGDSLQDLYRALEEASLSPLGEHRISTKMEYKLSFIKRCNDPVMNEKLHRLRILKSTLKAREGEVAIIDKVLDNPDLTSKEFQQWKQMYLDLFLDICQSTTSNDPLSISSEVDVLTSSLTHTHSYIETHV
UniProt Q9CXS4: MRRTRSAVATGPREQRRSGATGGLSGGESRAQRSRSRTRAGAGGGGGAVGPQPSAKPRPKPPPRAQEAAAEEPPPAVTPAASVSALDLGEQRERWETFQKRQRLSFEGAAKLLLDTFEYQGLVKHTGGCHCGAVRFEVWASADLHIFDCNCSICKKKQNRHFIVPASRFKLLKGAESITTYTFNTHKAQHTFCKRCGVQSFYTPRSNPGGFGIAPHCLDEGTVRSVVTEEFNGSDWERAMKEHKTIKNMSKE

What follows are substances tested against T1, gephyrin, native, in mouse brain (mouse (endogenous in brain)) (UniProt Q8BUV3) (assay: affinity purification with mass spectrometry; native gephyrin complexes precipitated from mouse cortex and hippocampus lysate with DARPin-hFc 27B3, 27F3, 27G2 or antibody 3B11 on Protein G magnetic beads; LC-MS/MS; against control DARPin-hFc E3_5 or control IgG).
T1 sequence: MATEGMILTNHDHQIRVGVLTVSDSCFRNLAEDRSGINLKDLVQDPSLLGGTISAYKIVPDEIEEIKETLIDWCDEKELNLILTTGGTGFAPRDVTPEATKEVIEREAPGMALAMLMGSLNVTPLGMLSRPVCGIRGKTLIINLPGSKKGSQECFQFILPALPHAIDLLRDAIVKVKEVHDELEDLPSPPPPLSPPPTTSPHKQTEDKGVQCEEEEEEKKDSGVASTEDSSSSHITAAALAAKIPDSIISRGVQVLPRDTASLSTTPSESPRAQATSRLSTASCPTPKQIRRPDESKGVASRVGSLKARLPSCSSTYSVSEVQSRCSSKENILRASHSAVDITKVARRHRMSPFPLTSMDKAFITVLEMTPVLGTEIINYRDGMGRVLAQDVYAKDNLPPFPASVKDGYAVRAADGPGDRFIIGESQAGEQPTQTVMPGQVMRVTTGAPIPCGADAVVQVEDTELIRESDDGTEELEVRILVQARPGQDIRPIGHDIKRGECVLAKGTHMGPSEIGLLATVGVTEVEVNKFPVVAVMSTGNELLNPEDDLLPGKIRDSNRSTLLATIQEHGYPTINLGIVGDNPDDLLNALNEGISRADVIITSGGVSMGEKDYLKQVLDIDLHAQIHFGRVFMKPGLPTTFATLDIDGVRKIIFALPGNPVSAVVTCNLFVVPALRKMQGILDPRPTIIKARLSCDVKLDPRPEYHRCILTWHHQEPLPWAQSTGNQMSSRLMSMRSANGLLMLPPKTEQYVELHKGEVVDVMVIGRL
With SAFB1 (from UniProt D3YXK2 1-937) the binding was “binds”. In the case of PABP1 (from UniProt P29341 1-636), the binding is reported as “binds”. “CAMKIIα (from UniProt P11798 1-478) (enzyme)” was tested, and the binding was “binds”. With “MK01 (ERK2) (from UniProt P63085 1-358) (enzyme)” the binding was “binds”. In the case of DDX3X (from UniProt Q62167 1-662), the binding is reported as “binds”. CNKR2 (from UniProt Q80YA9 1-1032) was tested, and the binding was “binds”. With CENPV (from UniProt Q9CXS4 1-252) the binding was “binds”.
